Among the data in PMC8544208 are binding values, retold here.

Sequences of proteins named here, by UniProt entry; tags and fusion partners are left off. A change or cut given only in a name is not applied to a line headed by its entry. Residues count along the entry.
UniProt P01031: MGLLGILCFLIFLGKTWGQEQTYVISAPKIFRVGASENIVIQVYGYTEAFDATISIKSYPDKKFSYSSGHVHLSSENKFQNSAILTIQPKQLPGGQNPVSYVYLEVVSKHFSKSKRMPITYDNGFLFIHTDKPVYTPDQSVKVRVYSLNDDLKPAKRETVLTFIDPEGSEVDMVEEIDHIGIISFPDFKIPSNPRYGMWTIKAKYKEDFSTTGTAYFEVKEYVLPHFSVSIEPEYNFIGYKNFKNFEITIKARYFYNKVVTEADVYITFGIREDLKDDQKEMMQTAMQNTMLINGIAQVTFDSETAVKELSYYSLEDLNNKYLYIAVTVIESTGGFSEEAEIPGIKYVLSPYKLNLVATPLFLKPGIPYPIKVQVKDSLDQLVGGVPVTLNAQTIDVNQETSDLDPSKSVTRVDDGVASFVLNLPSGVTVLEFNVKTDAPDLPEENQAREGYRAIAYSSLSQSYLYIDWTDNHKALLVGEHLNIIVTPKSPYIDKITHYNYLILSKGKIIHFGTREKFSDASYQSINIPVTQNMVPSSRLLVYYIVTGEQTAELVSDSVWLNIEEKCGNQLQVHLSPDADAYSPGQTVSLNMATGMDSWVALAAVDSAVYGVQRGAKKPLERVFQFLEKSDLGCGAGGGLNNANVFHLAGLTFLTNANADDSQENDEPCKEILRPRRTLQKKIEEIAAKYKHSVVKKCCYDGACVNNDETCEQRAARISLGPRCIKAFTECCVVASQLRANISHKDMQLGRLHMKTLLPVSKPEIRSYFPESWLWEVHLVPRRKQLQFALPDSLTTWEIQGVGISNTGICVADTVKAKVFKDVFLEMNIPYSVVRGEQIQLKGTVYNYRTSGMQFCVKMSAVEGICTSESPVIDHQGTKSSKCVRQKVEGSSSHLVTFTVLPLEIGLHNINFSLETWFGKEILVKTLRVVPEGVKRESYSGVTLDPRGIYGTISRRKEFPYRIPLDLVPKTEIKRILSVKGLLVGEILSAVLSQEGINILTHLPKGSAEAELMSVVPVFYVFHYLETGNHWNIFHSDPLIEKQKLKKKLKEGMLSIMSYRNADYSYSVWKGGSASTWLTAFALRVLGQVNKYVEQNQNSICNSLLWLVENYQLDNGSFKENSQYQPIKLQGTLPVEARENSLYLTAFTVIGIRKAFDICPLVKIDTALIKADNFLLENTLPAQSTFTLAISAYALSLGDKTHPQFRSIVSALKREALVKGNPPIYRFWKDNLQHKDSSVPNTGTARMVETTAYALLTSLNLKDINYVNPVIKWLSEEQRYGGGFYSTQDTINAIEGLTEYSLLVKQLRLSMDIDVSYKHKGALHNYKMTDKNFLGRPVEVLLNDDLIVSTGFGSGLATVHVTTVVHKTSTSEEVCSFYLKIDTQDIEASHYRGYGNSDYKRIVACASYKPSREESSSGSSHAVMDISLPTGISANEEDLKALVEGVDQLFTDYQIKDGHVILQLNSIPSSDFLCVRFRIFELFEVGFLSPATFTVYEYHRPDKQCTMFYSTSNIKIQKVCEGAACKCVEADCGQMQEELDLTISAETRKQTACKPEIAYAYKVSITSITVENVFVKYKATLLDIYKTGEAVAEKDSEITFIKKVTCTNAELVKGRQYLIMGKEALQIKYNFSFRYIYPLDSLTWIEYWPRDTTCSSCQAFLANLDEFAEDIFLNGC
UniProt P10643, residues 23-843: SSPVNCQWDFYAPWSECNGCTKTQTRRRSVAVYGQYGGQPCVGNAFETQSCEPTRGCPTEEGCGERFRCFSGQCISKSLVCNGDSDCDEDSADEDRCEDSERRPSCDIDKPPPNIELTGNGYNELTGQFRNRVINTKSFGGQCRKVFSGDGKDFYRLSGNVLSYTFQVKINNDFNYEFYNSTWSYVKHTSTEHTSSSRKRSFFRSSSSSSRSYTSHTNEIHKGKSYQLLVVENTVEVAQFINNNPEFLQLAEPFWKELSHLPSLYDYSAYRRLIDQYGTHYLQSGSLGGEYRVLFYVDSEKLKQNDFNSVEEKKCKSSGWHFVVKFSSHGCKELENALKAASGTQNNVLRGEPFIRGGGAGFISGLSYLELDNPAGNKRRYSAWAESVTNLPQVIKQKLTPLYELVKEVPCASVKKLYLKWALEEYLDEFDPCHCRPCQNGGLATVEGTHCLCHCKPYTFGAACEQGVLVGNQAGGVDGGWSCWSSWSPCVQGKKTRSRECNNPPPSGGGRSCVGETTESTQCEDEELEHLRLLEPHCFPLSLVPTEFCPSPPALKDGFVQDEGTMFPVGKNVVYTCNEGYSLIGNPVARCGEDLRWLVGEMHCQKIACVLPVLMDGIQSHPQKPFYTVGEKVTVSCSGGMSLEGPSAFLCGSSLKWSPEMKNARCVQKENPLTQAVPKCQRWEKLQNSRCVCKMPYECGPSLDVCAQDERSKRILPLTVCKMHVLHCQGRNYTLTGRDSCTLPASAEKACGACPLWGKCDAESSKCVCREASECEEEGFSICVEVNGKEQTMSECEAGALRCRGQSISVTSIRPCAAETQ
UniProt P07357: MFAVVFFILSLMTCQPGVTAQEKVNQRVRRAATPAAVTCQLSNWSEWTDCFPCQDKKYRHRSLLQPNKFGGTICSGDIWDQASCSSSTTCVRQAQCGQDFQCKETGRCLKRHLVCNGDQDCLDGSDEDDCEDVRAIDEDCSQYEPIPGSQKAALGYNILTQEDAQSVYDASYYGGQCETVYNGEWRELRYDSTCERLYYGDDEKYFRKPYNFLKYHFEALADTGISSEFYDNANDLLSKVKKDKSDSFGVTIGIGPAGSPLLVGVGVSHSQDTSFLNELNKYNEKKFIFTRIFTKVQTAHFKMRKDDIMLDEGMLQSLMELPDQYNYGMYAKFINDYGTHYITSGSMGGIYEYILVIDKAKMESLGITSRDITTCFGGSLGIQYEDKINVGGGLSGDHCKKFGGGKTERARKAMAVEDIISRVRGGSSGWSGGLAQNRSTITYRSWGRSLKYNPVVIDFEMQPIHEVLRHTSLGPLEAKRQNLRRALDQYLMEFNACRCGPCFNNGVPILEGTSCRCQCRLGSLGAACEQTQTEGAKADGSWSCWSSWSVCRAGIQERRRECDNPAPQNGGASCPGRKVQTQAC
UniProt P02748, residues 22-559: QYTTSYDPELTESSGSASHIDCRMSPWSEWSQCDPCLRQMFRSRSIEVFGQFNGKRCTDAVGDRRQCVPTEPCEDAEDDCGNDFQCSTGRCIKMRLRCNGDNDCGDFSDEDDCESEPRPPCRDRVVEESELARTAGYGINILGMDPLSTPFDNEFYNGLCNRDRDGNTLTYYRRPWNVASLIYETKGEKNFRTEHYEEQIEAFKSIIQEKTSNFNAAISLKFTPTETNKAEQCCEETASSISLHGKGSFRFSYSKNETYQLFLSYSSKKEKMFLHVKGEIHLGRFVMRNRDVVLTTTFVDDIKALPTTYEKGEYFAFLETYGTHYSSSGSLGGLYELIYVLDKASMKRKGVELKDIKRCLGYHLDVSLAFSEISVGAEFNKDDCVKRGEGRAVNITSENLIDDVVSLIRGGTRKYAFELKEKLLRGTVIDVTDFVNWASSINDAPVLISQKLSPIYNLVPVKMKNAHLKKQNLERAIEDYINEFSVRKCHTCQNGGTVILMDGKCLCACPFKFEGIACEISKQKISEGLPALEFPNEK

One test concerns the target Complement C5 (UniProt P01031). In words: SPR; MAC assembly assay, Biacore 8K, HBS-EP+; anti-C5 antibody amine coupled to a CM5 chip, C5 or C5b6 captured at 4 nM; C7, C8 and C9 flowed over in succession at 4, 8 and 50 nM, also with single components left out; both purified.
For test [1], the target named is C5b6 with bound C7, assembled on the SPR chip (UniProt P01031). Described as above.

No constants are given. Whether binding was seen depends on the method and setting.

As for “Complement C7 (from UniProt P10643 23-843)”, the binding entry with Complement C5 is reported as “no binding (tested: 4 nM)”.
In the case of “Complement C8 (from UniProt P07357 31-584; P07358 55-591; P07360 21-202)”, the binding entry with Complement C5 is on record as “no binding (tested: 8 nM)”.
For the substance “Complement C9 (from UniProt P02748 22-559)”, the binding entry (in test [1]; with Complement C5) was “no binding (tested: 50 nM)” throughout.
